Experimental data taken from patent US10206937B2, “Boronic acid derivatives and therapeutic uses thereof” (Qpex Biopharma, Inc., priority 2014, dated 2019).
This continues a long series; more values of the same kind are listed elsewhere.

Tested on: strains of Enterobacteriaceae producing various carbapenemases (class A, D and B; 169 strains)
Assay: Meropenem or tebipenem potentiation by Compounds 97 or 62 (MIC)
Assay type: cell-based
Experimental: The largest panel of clinical isolates expressing class A, D and B carbapenemases alone or in combination with other beta-lactamases (169 strains) was used to evaluate carbapenem potentiation activity of Compounds 97 and 62. MIC for meropenem and tebipenem of these strains were determined either alone or in the presence of Compounds 97 or 62, respectively, at a fixed concentration of 8 μg/ml in the growth media.

C[C@@H](O)[C@H]1C(=O)N2C(C(=O)O)=C(SC3CN(C4=NCCS4)C3)[C@H](C)[C@H]12 [T]
Tebipenem MIC alone (T) (CF1012 Citrobacter freundii KPC-2): Z (MIC of greater than 10 μg/mL)
Tebipenem MIC alone (T) (CF1021 Citrobacter freundii CMY-type, VIM-1): Y (MIC of 1 μg/mL to 10 μg/mL)
Tebipenem MIC alone (T) (EA1019 Enterobacter aerogenes SHV-5, VIM-1): Z (MIC of greater than 10 μg/mL)
Tebipenem MIC alone (T) (EC1007 Escherichia coli KPC-3): Y (MIC of 1 μg/mL to 10 μg/mL)
Tebipenem MIC alone (T) (EC1064 Escherichia coli NDM-1, CMY-6, CTX-M-15): Z (MIC of greater than 10 μg/mL)
Tebipenem MIC alone (T) (EC1065 Escherichai coli IMP-1 CMY-2): Y (MIC of 1 μg/mL to 10 μg/mL)
Tebipenem MIC alone (T) (EC1068 Escherichia coli VIM-1): Y (MIC of 1 μg/mL to 10 μg/mL)
Tebipenem MIC alone (T) (EC1073 Escherichia coli OXA-48): Z (MIC of greater than 10 μg/mL)
Tebipenem MIC alone (T) (EC1074 Escherichia coli KPC-2, SHV-12): Z (MIC of greater than 10 μg/mL)
Tebipenem MIC alone (T) (EC1076 Escherichia coli NDM-1 CMY-2): Z (MIC of greater than 10 μg/mL)
Tebipenem MIC alone (T) (ECL1004 Enterobacter cloacae NMC-A): Z (MIC of greater than 10 μg/mL)
Tebipenem MIC alone (T) (ECL1026 Enterobacter cloacae KPC-2, TEM-1): Z (MIC of greater than 10 μg/mL)
Tebipenem MIC alone (T) (ECL1036 Enterobacter cloacae KPC-3, TEM-1): Z (MIC of greater than 10 μg/mL)
Tebipenem MIC alone (T) (ECL1058 Enterobacter cloacae KPC-3, SHV-11, TEM-1): Z (MIC of greater than 10 μg/mL)
Tebipenem MIC alone (T) (ECL1059 Enterobacter cloacae KPC-3, SHV-12, TEM-1): Y (MIC of 1 μg/mL to 10 μg/mL)
Tebipenem MIC alone (T) (ECL1061 Enterobacter cloacae KPC-3, Hyper AmpC expression): Z (MIC of greater than 10 μg/mL)
Tebipenem MIC alone (T) (ECL1079 Enterobacter cloacae KPC TEM): Z (MIC of greater than 10 μg/mL)
Tebipenem MIC alone (T) (ECL1082 Enterobacter cloacae VIM-1): Y (MIC of 1 μg/mL to 10 μg/mL)
Tebipenem MIC alone (T) (KP1001 Klebsiella pneumoniae KPC TEM SHV): Z (MIC of greater than 10 μg/mL)
Tebipenem MIC alone (T) (KP1002 Klebsiella pneumoniae KPC TEM SHV): Z (MIC of greater than 10 μg/mL)
Tebipenem MIC alone (T) (KP1003 Klebsiella pneumoniae KPC TEM SHV): Z (MIC of greater than 10 μg/mL)
Tebipenem MIC alone (T) (KP1004 Klebsiella pneumoniae KPC-2, TEM-1, SHV-11): Z (MIC of greater than 10 μg/mL)
Tebipenem MIC alone (T) (KP1008 Klebsiella pneumoniae KPC-2): Z (MIC of greater than 10 μg/mL)
Tebipenem MIC alone (T) (KP1014 Klebsiella pneumoniae Vim-1, TEM, SHV): Z (MIC of greater than 10 μg/mL)
Tebipenem MIC alone (T) (KP1015 Klebsiella pneumoniae VIM-1, SHV): Z (MIC of greater than 10 μg/mL)
Tebipenem MIC alone (T) (KP1082 Klebsiella pneumoniae KPC-2, SHV-1): Z (MIC of greater than 10 μg/mL)
Tebipenem MIC alone (T) (KP1083 Klebsiella pneumoniae KPC-3, SHV-1, TEM-1): Z (MIC of greater than 10 μg/mL)
Tebipenem MIC alone (T) (KP1084 Klebsiella pneumoniae KPC-3, SHV-11, TEM-1): Z (MIC of greater than 10 μg/mL)
Tebipenem MIC alone (T) (KP1086 Klebsiella pneumoniae TEM, SHV, CTX-M-15, OXA-48): Z (MIC of greater than 10 μg/mL)
Tebipenem MIC alone (T) (KP1087 Klebsiella pneumoniae KPC-2, CTX-M-15, SHV-11, TEM-1): Z (MIC of greater than 10 μg/mL)
Tebipenem MIC alone (T) (KP1088 Klebsiella pneumoniae KPC-3, SHV-11, TEM-1): Z (MIC of greater than 10 μg/mL)
Tebipenem MIC alone (T) (KP1089 Klebsiella pneumoniae TEM, SHV, CTX-M-15, OXA-181): Y (MIC of 1 μg/mL to 10 μg/mL)
Tebipenem MIC alone (T) (KP1092 Klebsiella pneumoniae SHV-11, SHV-12, TEM-1, KPC): Z (MIC of greater than 10 μg/mL)
Tebipenem MIC alone (T) (KP1093 Klebsiella pneumoniae KPC-3 TEM SHV-11): Z (MIC of greater than 10 μg/mL)
Tebipenem MIC alone (T) (KP1094 Klebsiella pneumoniae KPC-2 TEM-1 LEN-17): Z (MIC of greater than 10 μg/mL)
Tebipenem MIC alone (T) (KP1095 Klebsiella pneumoniae KPC-2 TEM-1 SHV-1): Z (MIC of greater than 10 μg/mL)
Tebipenem MIC alone (T) (KP1096 Klebsiella pneumoniae KPC-2 TEM-181 SHV-11): Z (MIC of greater than 10 μg/mL)
Tebipenem MIC alone (T) (KP1097 Klebsiella pneumoniae IMP-1 SHV): Y (MIC of 1 μg/mL to 10 μg/mL)
Tebipenem MIC alone (T) (KP1098 Klebsiella pneumoniae IMP-26 TEM SHV): Z (MIC of greater than 10 μg/mL)
Tebipenem MIC alone (T) (KP1099 Klebsiella pneumoniae KPC-2 SHV): Z (MIC of greater than 10 μg/mL)
Tebipenem MIC alone (T) (KP1100 Klebsiella pneumoniae KPC-3 TEM SHV): Z (MIC of greater than 10 μg/mL)
Tebipenem MIC alone (T) (KP1101 Klebsiella pneumoniae KPC-2 TEM SHV): Z (MIC of greater than 10 μg/mL)
Tebipenem MIC alone (T) (KP1102 Klebsiella pneumoniae KPC-3 TEM SHV): Z (MIC of greater than 10 μg/mL)
Tebipenem MIC alone (T) (KP1104 Klebsiella pneumoniae KPC, TEM): Z (MIC of greater than 10 μg/mL)
Tebipenem MIC alone (T) (KP1105 Klebsiella pneumoniae KPC, SHV, TEM): Z (MIC of greater than 10 μg/mL)
Tebipenem MIC alone (T) (KP1237 Klebsiella pneumoniae OXA-48 TEM SHV CTX-M-15): Z (MIC of greater than 10 μg/mL)
Tebipenem MIC alone (T) (KP1239 Klebsiella pneumoniae OXA-48 SHV): Z (MIC of greater than 10 μg/mL)
Tebipenem MIC alone (T) (KP1240 Klebsiella pneumoniae OXA-181 SHV CTX-M-15): Y (MIC of 1 μg/mL to 10 μg/mL)
Tebipenem MIC alone (T) (KP1241 Klebsiella pneumoniae OXA-181 TEM SHV CTX-M-15): Z (MIC of greater than 10 μg/mL)
Tebipenem MIC alone (T) (KP1242 Klebsiella pneumoniae KPC-2, SHV-12 TEM): Z (MIC of greater than 10 μg/mL)
Tebipenem MIC alone (T) (KP1243 Klebsiella pneumoniae KPC-2 SHV VIM-1): Z (MIC of greater than 10 μg/mL)
Tebipenem MIC alone (T) (KP1244 Klebsiella pneumoniae KPC SHV TEM + 1.9 kb): Z (MIC of greater than 10 μg/mL)
Tebipenem MIC alone (T) (KP1245 Klebsiella pneumoniae KPC SHV TEM + 1.9 kb): Z (MIC of greater than 10 μg/mL)
Tebipenem MIC alone (T) (KP1246 Klebsiella pneumoniae KPC SHV TEM + 1.9 kb): Z (MIC of greater than 10 μg/mL)
Tebipenem MIC alone (T) (KP1247 Klebsiella pneumoniae IMP TEM SHV): Z (MIC of greater than 10 μg/mL)
Tebipenem MIC alone (T) (KP1248 Klebsiella pneumoniae OXA-232 SHV CTX-M-15): Z (MIC of greater than 10 μg/mL)
Tebipenem MIC alone (T) (KP1249 Klebsiella pneumoniae OXA-232 SHV): Z (MIC of greater than 10 μg/mL)
Tebipenem MIC alone (T) (KP1250 Klebsiella pneumoniae NDM-1 TEM SHV SMY-2 CTX-M-15): Z (MIC of greater than 10 μg/mL)
Tebipenem MIC alone (T) (KP1252 Klebsiella pneumoniae KPC TEM SHV): Z (MIC of greater than 10 μg/mL)
Tebipenem MIC alone (T) (KPM1123 Klebsiella pneumoniae KPC-2 TEM SHV): Z (MIC of greater than 10 μg/mL)
Tebipenem MIC alone (T) (KPM1202 Klebsiella pneumoniae KPC SHV TEM): Z (MIC of greater than 10 μg/mL)
Tebipenem MIC alone (T) (KPM1203 Klebsiella pneumoniae KPC SHV TEM): Z (MIC of greater than 10 μg/mL)
Tebipenem MIC alone (T) (KPM1344 Klebsiella pneumoniae VIM-1): Y (MIC of 1 μg/mL to 10 μg/mL)
Tebipenem MIC alone (T) (KPM1345 Klebsiella pneumoniae VIM-1 SHV): Y (MIC of 1 μg/mL to 10 μg/mL)
Tebipenem MIC alone (T) (KPM1346 Klebsiella pneumoniae NDM-1 TEM SHV CTX-M-15 CMY): Z (MIC of greater than 10 μg/mL)
Tebipenem MIC alone (T) (KPM1347 Klebsiella pneumoniae NDM-1 SHV CTX-M-15): Z (MIC of greater than 10 μg/mL)
Tebipenem MIC alone (T) (KX1017 Klebsiella oxytoca KPC-2, OXA-2, SHV-30): Z (MIC of greater than 10 μg/mL)
Tebipenem MIC alone (T) (KX1018 Klebsiella oxytoca KPC-2, SHV-40, OXY-1): Z (MIC of greater than 10 μg/mL)
Tebipenem MIC alone (T) (KX1019 Klebsiella oxytoca KPC-2, OXA-2): Z (MIC of greater than 10 μg/mL)
